Read-outs that look alike come from different tables or passages of the source. Results are given in words; binding and its absence hold for the method and conditions named. Some binding calls cover weakened binding; strength is not graded here.
Legend:
[1] = target: human joining chain (J-chain) (human) (UniProt P01591); assay: non-reducing SDS-PAGE with Coomassie staining and Western blot
[2] = target: human joining chain (J-chain) (human) (UniProt P01591); assay: as above; remark: listed apart in the source

Protein sequences, listed by entry. Tags and fused reporters are not part of them. Residues count along the entry.
UniProt P01591, residues 23-159: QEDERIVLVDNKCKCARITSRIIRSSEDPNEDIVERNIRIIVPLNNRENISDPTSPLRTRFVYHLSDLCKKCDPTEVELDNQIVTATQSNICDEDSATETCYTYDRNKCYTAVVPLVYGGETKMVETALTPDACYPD

binding [1]: binds
binding [2]: binds
Substance: human joining chain (J-chain) (from UniProt P01591 23-159)

From paper doi:10.1101/2023.09.01.555973
